Holding throughout (experiment): pull-down; GST fusion proteins on beads, phosphorylated or not by PKC in vitro, incubated 2 h with rat homogenate diluted in TBS; five washes with TBS and 0.1% Triton X-100; immunoblot; only the target purified
(A western blot detects proteins with antibodies after separation by electrophoresis.)

Protein sequences, listed by entry. Tags and fused reporters are not part of them. Residues count along the entry.
UniProt P24587: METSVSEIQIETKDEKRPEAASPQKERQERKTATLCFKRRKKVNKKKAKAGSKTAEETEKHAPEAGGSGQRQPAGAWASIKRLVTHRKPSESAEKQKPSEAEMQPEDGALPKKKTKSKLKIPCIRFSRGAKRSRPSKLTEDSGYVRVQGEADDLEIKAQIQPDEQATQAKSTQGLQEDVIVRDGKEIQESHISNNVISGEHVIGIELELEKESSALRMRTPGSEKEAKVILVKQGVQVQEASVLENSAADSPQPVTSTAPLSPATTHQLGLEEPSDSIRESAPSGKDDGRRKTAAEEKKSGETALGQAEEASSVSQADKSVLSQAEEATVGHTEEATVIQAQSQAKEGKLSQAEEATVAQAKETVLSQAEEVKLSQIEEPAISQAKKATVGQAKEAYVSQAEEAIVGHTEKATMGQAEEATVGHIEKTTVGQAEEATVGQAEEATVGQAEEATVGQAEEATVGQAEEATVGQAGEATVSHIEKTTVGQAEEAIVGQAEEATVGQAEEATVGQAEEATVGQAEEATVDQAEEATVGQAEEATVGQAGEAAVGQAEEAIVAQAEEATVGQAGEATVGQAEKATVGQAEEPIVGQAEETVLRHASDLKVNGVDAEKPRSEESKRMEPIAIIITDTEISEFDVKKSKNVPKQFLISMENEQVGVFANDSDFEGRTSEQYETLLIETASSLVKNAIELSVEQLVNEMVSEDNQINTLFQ
UniProt P19490, residues 19-907: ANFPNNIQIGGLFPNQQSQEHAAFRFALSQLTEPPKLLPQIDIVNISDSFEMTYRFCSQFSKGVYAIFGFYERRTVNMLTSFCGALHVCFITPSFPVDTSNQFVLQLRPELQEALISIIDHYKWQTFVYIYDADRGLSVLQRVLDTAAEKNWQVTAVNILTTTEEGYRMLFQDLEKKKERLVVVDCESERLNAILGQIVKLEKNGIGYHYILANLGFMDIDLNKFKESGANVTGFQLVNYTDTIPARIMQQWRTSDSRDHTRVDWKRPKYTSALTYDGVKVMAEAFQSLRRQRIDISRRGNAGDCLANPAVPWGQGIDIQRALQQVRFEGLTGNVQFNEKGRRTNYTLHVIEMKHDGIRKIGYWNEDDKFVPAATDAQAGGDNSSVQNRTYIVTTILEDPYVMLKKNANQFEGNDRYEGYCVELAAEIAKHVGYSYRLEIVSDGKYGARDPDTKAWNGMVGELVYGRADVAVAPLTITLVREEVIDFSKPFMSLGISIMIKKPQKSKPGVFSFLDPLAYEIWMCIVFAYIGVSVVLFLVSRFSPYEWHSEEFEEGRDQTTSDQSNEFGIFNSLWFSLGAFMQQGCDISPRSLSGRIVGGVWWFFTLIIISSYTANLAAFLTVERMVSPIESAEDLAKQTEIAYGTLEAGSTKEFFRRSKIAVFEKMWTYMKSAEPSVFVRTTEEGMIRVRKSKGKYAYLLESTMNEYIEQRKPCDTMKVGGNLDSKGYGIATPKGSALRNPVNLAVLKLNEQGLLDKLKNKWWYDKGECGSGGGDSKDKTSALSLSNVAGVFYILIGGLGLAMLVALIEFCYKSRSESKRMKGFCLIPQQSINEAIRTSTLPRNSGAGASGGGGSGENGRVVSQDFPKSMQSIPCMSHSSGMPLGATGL

One test has as its target GST-SAP97wt (UniProt Q62696).
The next test has as its target T1, GST-ADAM10-Ct (UniProt O35598).
T1 sequence: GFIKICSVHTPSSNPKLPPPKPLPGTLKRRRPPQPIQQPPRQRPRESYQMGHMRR

Test [1] concerns the target T2, GST-ADAM10-Ct phosphorylated by PKC (UniProt O35598).
T2 sequence (chain, phosphorylated in vitro by PKC; S741 is the PKC phosphorylation site): T1 sequence

The next test has as its target T3, GST-ADAM10-S741A (UniProt O35598).
T3 sequence: T1 sequence with S47A

Positions count from the first letter of the chain named. No constants are given. Whether binding was seen depends on the method and setting. In cells and extracts the contact can be indirect. Some results given as binding are weak or reduced against the parent protein; the word gives no strength. For part of these data: Sequences can lack the tags named with a protein.

On to “A-kinase anchor protein 150 (AKAP150) (from UniProt P24587 1-714)”, for which the binding entry with GST-SAP97wt was “binds”.

For the substance “GluA1 (from UniProt P19490 19-907) (receptor)”, the binding entry with GST-SAP97wt is on record as “binds”.

“GluN2A (from UniProt Q00959 23-1464) (receptor)”: in the test with GST-SAP97wt, the binding entry was “binds”.

For the substance “SAP97 (endogenous, rat brain) (from UniProt Q62696 1-911)”, the binding result (with GST-ADAM10-Ct; in test [1]; with GST-ADAM10-S741A) was “binds” throughout.

The values above are taken from publication PMC4260750.
